Publication PMC8544881 (mSphere, 2021)
No constants are given. Whether binding was seen depends on the method and setting. Binding seen in cells or lysates may run through a third protein. Some entries that bind do so weakly or less than the wild type.

Amino acid sequences for entries named in this document (tags omitted).
UniProt Q13547: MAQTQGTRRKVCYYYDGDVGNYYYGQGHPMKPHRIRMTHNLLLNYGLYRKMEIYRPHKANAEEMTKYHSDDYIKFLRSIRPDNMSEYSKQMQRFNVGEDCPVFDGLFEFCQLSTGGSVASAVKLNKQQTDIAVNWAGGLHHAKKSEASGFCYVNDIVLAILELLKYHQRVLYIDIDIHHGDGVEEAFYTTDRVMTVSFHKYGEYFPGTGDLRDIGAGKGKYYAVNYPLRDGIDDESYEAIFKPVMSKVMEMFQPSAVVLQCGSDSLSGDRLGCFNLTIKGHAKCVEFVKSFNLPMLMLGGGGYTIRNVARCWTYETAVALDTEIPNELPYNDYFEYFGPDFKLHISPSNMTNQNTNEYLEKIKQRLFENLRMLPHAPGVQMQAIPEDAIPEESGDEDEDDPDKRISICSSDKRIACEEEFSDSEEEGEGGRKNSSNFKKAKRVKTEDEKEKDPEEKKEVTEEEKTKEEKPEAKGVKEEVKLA

T1: zinc finger and BTB domain 25 (ZBTB25) (human (endogenous in THP-1)) (UniProt P24278)
T1 sequence: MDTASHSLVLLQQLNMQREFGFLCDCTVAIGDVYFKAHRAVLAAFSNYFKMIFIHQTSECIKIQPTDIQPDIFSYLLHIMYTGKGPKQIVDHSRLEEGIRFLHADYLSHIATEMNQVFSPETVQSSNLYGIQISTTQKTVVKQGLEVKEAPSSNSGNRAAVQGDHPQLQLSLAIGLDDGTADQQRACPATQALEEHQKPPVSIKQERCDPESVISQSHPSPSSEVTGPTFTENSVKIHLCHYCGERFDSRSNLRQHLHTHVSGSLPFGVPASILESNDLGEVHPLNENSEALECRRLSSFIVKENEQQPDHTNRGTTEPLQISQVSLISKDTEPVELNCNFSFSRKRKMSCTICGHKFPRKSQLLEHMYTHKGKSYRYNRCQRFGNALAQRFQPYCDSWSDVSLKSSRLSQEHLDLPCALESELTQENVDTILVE

T2: transcriptional corepressor Sin3a (human (endogenous in THP-1)) (UniProt Q96ST3)
T2 sequence: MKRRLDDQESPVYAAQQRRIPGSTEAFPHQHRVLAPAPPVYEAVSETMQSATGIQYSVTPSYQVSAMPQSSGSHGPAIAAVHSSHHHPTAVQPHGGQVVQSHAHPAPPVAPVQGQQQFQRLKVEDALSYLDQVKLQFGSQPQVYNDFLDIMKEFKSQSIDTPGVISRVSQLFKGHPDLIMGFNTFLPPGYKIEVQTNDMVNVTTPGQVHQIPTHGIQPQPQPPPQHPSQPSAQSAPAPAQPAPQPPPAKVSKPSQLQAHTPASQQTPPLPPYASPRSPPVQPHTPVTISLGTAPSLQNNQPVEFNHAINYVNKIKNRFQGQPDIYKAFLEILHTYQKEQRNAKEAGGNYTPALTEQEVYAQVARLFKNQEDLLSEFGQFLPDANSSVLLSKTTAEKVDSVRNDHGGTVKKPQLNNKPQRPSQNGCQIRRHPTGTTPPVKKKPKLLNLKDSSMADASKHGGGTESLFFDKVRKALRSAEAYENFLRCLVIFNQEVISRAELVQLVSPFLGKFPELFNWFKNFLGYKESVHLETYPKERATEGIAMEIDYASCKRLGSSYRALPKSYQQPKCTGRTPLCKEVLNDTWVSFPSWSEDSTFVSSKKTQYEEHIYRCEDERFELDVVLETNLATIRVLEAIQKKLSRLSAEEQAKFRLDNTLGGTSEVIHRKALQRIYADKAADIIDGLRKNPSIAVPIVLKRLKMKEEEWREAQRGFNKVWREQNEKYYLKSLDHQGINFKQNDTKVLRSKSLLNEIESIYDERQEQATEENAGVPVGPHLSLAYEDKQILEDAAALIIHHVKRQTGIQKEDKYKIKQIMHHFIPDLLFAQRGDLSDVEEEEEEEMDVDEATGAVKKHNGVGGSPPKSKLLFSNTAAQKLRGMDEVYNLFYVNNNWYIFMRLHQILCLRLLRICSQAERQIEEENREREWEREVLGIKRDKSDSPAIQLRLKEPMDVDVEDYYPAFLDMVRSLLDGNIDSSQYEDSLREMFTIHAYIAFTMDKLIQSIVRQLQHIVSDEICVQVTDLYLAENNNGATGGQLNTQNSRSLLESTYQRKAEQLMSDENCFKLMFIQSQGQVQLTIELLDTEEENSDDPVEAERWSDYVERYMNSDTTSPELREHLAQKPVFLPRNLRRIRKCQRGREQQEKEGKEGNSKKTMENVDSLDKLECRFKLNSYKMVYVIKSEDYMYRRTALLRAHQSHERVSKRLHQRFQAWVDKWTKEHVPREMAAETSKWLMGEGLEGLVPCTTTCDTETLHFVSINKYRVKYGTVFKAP


Key:
Test in all cases: co-IP; whole-cell lysates of THP-1-derived macrophages; immunoprecipitated with antibodies against ZBTB25, Sin3a or HDAC1, IgG as negative control; protein A/G Sepharose beads, 4°C; Western blot
[1] = molecular target: T1, zinc finger and BTB domain 25 (ZBTB25) (human (endogenous in THP-1))
[2] = molecular target: T2, transcriptional corepressor Sin3a (human (endogenous in THP-1))
[3] = molecular target: histone deacetylase 1 (HDAC1) (human (endogenous in THP-1)) (UniProt Q13547)

Row | Molecule | binding [1] | binding [2] | binding [3]
1 | histone deacetylase 1 (HDAC1) (from UniProt Q13547 1-482) (enzyme) | binds |  | 
2 | zinc finger and BTB domain 25 (ZBTB25) (protein, UniProt P24278 1-435) MDTASHSLVLLQQLNMQREFGFLCDCTVAIGDVYFKAHRAVLAAFSNYFKMIFIHQTSECIKIQPTDIQPDIFSYLLHIMYTGKGPKQIVDHSRLEEGIRFLHADYLSHIATEMNQVFSPETVQSSNLYGIQISTTQKTVVKQGLEVKEAPSSNSGNRAAVQGDHPQLQLSLAIGLDDGTADQQRACPATQALEEHQKPPVSIKQERCDPESVISQSHPSPSSEVTGPTFTENSVKIHLCHYCGERFDSRSNLRQHLHTHVSGSLPFGVPASILESNDLGEVHPLNENSEALECRRLSSFIVKENEQQPDHTNRGTTEPLQISQVSLISKDTEPVELNCNFSFSRKRKMSCTICGHKFPRKSQLLEHMYTHKGKSYRYNRCQRFGNALAQRFQPYCDSWSDVSLKSSRLSQEHLDLPCALESELTQENVDTILVE |  | binds | binds
